Assay results: the M2OR odorant receptor database
This is one part of the list. Calls are pooled over several reports, among them a noisy single-well screen.

Columns and labels:
Conditions in all cases: stereoisomer not certain
[1] = tested on: T1, O52I2
T1 sequence (whole entry): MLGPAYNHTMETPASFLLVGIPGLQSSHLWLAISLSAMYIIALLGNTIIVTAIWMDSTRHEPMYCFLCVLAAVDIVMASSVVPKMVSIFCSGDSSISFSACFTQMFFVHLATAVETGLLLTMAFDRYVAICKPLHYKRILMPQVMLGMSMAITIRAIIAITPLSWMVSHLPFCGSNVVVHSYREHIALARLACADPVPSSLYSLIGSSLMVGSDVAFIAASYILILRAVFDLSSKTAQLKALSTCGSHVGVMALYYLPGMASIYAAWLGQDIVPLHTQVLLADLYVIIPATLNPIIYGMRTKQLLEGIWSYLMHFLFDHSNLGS
Procedure, shortened: (§1)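 Each entry records the cell line, G-protein, co-transfected protein and tags used. Methods varied with the source, often transient luciferase assays in mammalian cell lines. A receptor–molecule pair is called responsive (active) if the original authors judged its signal statistically different from baseline and non-responsive (inactive) otherwise.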

[2] = tested on: T2, O52J3
T2 sequence (whole entry): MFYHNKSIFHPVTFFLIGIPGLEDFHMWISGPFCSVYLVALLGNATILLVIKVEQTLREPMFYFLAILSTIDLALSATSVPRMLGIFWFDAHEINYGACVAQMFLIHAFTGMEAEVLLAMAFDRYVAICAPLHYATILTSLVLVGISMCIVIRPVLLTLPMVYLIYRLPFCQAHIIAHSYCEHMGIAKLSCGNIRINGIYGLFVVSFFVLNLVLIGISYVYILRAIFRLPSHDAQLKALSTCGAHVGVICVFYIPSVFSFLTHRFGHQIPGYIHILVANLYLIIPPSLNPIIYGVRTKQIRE
Procedure, shortened: as §1

[3] = tested on: T3, O52L1
T3 sequence (whole entry): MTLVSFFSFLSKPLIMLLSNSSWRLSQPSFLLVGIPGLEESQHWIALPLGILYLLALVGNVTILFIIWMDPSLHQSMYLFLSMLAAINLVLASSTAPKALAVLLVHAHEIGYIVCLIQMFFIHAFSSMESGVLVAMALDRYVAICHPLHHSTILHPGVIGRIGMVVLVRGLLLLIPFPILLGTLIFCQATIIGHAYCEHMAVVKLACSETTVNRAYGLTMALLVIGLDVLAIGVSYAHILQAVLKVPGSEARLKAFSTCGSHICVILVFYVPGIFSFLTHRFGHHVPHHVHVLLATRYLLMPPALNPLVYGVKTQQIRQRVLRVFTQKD
Procedure, shortened: as §1

[4] = tested on: T4, O52L2
T4 sequence (whole entry): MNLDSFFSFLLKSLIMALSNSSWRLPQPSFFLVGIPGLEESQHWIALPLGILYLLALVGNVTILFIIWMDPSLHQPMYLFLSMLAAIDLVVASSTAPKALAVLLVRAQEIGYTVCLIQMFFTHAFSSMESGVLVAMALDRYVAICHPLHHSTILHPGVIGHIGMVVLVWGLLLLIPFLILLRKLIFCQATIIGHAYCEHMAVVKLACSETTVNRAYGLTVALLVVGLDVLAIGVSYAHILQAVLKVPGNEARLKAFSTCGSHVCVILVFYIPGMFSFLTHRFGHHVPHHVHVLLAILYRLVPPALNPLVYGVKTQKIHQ
Procedure, shortened: as §1

[5] = tested on: T5, O52M1
T5 sequence (whole entry): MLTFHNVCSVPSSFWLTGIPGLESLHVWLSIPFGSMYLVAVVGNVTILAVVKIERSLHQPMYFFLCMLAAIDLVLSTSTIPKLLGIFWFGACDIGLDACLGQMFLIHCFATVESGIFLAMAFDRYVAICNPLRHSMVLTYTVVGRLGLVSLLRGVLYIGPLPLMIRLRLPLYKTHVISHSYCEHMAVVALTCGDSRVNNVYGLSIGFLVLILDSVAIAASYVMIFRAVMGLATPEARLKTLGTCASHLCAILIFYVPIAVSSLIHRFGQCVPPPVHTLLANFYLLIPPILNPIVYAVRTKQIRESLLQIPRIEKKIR
Procedure, shortened: as §1

[6] = tested on: T6, O52N1
T6 sequence (whole entry): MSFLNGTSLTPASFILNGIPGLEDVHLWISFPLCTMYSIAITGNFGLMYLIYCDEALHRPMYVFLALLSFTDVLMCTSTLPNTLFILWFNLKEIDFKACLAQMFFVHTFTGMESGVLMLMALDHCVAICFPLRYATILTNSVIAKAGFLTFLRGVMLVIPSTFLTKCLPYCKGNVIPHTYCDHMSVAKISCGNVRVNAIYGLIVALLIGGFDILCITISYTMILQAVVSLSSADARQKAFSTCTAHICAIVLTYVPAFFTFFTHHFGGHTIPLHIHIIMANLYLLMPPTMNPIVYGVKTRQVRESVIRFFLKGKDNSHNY
Procedure, shortened: as §1

[7] = tested on: T7, O52N2
T7 sequence (whole entry): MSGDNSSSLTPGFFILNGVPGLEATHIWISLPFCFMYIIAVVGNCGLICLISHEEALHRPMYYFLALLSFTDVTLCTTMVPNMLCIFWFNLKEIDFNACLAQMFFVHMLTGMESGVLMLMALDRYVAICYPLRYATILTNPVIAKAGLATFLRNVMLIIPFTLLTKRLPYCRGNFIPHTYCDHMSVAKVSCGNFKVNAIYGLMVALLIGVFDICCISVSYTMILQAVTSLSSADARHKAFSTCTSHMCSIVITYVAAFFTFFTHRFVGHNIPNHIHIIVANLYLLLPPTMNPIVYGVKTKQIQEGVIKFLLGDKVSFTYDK
Procedure, shortened: as §1

[8] = tested on: T8, O52N4
T8 sequence (whole entry): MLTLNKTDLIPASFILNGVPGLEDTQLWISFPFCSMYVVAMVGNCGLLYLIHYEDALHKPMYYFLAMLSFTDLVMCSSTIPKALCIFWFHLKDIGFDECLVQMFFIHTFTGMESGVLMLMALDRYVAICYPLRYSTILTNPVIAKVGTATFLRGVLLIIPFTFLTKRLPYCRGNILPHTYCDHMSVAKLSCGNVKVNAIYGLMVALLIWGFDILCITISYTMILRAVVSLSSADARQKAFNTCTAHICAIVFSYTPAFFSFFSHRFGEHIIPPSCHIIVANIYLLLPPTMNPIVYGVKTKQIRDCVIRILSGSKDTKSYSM
Procedure, shortened: as §1

[9] = tested on: T9, O52P1
T9 sequence (whole entry): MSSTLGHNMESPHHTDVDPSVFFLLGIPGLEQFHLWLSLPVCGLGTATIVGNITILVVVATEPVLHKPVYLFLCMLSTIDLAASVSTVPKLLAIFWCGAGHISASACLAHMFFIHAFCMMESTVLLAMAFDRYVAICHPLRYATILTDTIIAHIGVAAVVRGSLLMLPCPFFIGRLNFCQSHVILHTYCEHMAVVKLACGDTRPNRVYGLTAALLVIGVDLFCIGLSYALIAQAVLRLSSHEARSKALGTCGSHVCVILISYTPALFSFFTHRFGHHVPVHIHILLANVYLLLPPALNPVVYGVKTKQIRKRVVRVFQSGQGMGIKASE
Procedure, shortened: as §1

Measured: odorant receptor agonist call

CC1=CCC(C(C)(C)O)CC1 (centres undefined)
inactive: [1] | [2] | [3] | [4] | [5] | [6] | [7] | [8] | [9]

CCCCCCOC(=O)CCC
inactive: [1] | [2] | [3] | [4] | [5] | [6] | [7] | [8] | [9]

CC12CCC(C1)C(C)(C)C2=O (centres undefined)
active: [8]
inactive: [1] | [2] | [3] | [4] | [5] | [6] | [7] | [9]

CC(C)CCC(=O)O
inactive: [1] | [2] | [3] | [4] | [5] | [6] | [7] | [8] | [9]

COC(=O)c1ccccc1O
inactive: [1] | [2] | [3] | [4] | [5] | [6] | [7] | [8] | [9]

CCCCCC(=O)O
inactive: [1] | [2] | [3] | [4] | [5] | [6] | [7] | [8] | [9]

CCCCCCCCOC(C)=O
inactive: [1] | [2] | [3] | [4] | [5] | [6] | [7] | [8] | [9]

CC(C)C(=O)O
inactive: [1] | [2] | [3] | [4] | [5] | [6] | [7] | [8] | [9]

C=CCc1ccc(OC(C)=O)c(OC)c1
inactive: [1] | [2] | [3] | [4] | [5] | [6] | [8] | [9]
active: [7]

O=CCc1ccccc1
active: [7] | [8]
inactive: [1] | [2] | [3] | [4] | [5] | [6] | [9]

CCCCCCCC=CC=O
inactive: [1] | [2] | [3] | [4] | [5] | [6] | [8] | [9]
active: [7]
